Experimental data as given in doi:10.1101/2025.09.25.678588.

Legend:
Assay in all cases: EMSA
[1] = system: FadR1RO (Rhodococcus opacus PD630); settings: no acyl-CoA, binding at estimated uM protein
[2] = system: FadR2RO (Rhodococcus opacus PD630); settings: no acyl-CoA, binding at estimated uM protein, small shift
[3] = system: MabRRO (Rhodococcus opacus PD630); settings: 5 mM Mg2+

Measured: binding result

TTAACACCAGTCACACCCTTCCCATTCGGAGAAGCAGGGCTGTAACGAACGTCTGTCCAGATTCGATGCGAGGACCCCACGTGCAATTTTGTGGGAACCCAACAAATCCGCCGACAAAGGTTCATCCGCAACGACATCTCGCGGCACGCCGTTGACGGTGTTCTCTTGAAGAGTGATTTCGTTGCTCGCCCCGGGTCAGGGCTCTCAGACTCCCGGCATGCTCATCCCTTGGTTGGAGCTGCCGGGTTCTCATGACCGTGTCGCACTGTGGTCGAAGGCTGCCGGCCTCGA (double strand) [fasII (fabD) promoter EMSA probe]
binds: [1] | [2] | [3]; 45 uM arachidoyl-CoA, complex more pronounced than without ligand | [3]; no acyl-CoA, binding also in nM range, modest shift

The exact form of at least one protein or probe is not confirmed.
